Measured values from the supplement of paper PMC4604168 (melanoma cell lines).
Some of the results follow. Single values are uncertain, as repeats are few or missing.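 The apoptosis fraction was the count of cleaved-PARP antibody-stained nuclei relative to all DNA-stained nuclei, imaged in 1,536-well plates. Screening doses were set so most cells survived, and baseline and induced cleaved-PARP levels vary greatly across cell lines.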

Test system: CBRC016 (line from a melanoma biopsy)
Experiment: cleaved PARP positive nuclei fraction relative to DMSO control; melanoma cells; higher = more apoptosis
Conditions: library dose: low library concentration; 72 h

In order of rising “cleaved PARP positive nuclei fraction” value:
1. O=C1NC(=O)/C(=C/c2ccc(-c3ccc(F)cc3O)o2)S1 + CC(C)CCN1c2nc(Nc3cc(F)c(O)c(F)c3)ncc2N(C)C(=O)C1C [BID1870] (first compound 1 µM, partner dose 0.2 µM)  48%
2. O=C1NC(=O)/C(=C/c2ccc(-c3ccc(F)cc3O)o2)S1 + c1cc(-c2cnn3cc(-c4ccc(OCCN5CCCCC5)cc4)cnc23)ccn1 [Dorsomorphin] (first compound 1 µM, partner dose 0.4 µM)  54.6%
3. COc1ccc(COc2ccc(Cc3cnc(N)nc3N)cc2OC)cc1 + Cn1cc(/C=C2\C(=O)Nc3cccnc32)c2ccccc21 [GW441756] (first compound 1 µM, partner dose 0.4 µM)  56.8%
4. O=C(O)C(=O)Nc1sc2c(c1C(=O)O)CCNC2 + Oc1nc(-c2ccc(C(F)(F)F)cc2)nc2c1CSCC2 [XAV939] (first compound 1.66667 µM, partner dose 2 µM)  59.5%
5. Oc1cc(-c2nc(-c3ccccc3)[nH]c2-c2ccncc2)ccc1Cl + c1cc(-c2cnn3cc(-c4ccc(OCCN5CCCCC5)cc4)cnc23)ccn1 [Dorsomorphin] (first compound 0.2 µM, partner dose 0.4 µM)  61.2%
6. N#Cc1c(O)c2c(-c3ccc(-c4ccccc4O)cc3)csc2[nH]c1=O + COc1ccc(-c2ccc3c(N4CCOCC4)nc(N4C[C@@H](C)O[C@@H](C)C4)nc3n2)cc1CO [KU0063794] (first compound 2 µM, partner dose 0.02 µM)  67.3%
7. O=C1NC(=O)/C(=C/c2ccc(-c3ccc(F)cc3O)o2)S1 + Oc1nc(-c2ccc(C(F)(F)F)cc2)nc2c1CSCC2 [XAV939] (first compound 1 µM, partner dose 2 µM)  78.3%
8. NCC(=O)Nc1ccc(-n2nc(C(F)(F)F)cc2-c2ccc3c(ccc4ccccc43)c2)cc1 + O=C(Nc1ccccc1)c1cc([N+](=O)[O-])ccc1Cl [GW9662] (first compound 1 µM, partner dose 2 µM)  91.9%
9. O=S(=O)(c1ccccc1)N(CC(F)(F)F)c1ccc(C(O)(C(F)(F)F)C(F)(F)F)cc1 + c1cc(-c2cnn3cc(-c4ccc(OCCN5CCCCC5)cc4)cnc23)ccn1 [Dorsomorphin] (first compound 1.4 µM, partner dose 0.4 µM)  93.9%
10. N#Cc1c(O)c2c(-c3ccc(-c4ccccc4O)cc3)csc2[nH]c1=O + O=C(O)C(=O)Nc1sc2c(c1C(=O)O)CCNC2 [TCS401] (first compound 2 µM, partner dose 1.66667 µM)  105%
11. NCC(=O)Nc1ccc(-n2nc(C(F)(F)F)cc2-c2ccc3c(ccc4ccccc43)c2)cc1 + O=S(=O)(c1ccccc1)N(CC(F)(F)F)c1ccc(C(O)(C(F)(F)F)C(F)(F)F)cc1 [T0901317] (first compound 1 µM, partner dose 1.4 µM)  108%
12. COc1ccc2c(c1)CCC1C2CCC2(C)C(NCCCCCCN3C(=O)C=CC3=O)CCC12 (centres undefined) + CC(C)CCN1c2nc(Nc3cc(F)c(O)c(F)c3)ncc2N(C)C(=O)C1C [BID1870] (first compound 0.4 µM, partner dose 0.2 µM)  153%
13. CN(C)S(=O)(=O)c1ccc2c(c1)/C(=C/c1cc3c([nH]1)CCCC3)C(=O)N2 + O=S(=O)(c1ccccc1)N(CC(F)(F)F)c1ccc(C(O)(C(F)(F)F)C(F)(F)F)cc1 [T0901317] (first compound 0.4 µM, partner dose 1.4 µM)  162%
14. Oc1cc(-c2nc(-c3ccccc3)[nH]c2-c2ccncc2)ccc1Cl + Cc1cc([N+](=O)[O-])ccc1NS(=O)(=O)c1cc(Cl)ccc1Cl [FH535] (first compound 0.2 µM, partner dose 1 µM)  767%

Test system: CBRC017 (line from a melanoma biopsy)
Experiment: as above
Conditions: library dose: low library concentration; 72 h

In order of falling “cleaved PARP positive nuclei fraction” value:
1. COc1ccc2c(c1)CCC1C2CCC2(C)C(NCCCCCCN3C(=O)C=CC3=O)CCC12 (centres undefined) + Oc1cc(-c2nc(-c3ccccc3)[nH]c2-c2ccncc2)ccc1Cl [L779450] (first compound 0.4 µM, partner dose 0.2 µM)  181%
2. O=C(Nc1ccccc1)c1cc([N+](=O)[O-])ccc1Cl + Oc1cc(-c2nc(-c3ccccc3)[nH]c2-c2ccncc2)ccc1Cl [L779450] (first compound 2 µM, partner dose 0.2 µM)  128%
3. O=C(O)c1ccc(-c2c[nH]c3ncc(-c4ccccc4)cc23)cc1C1CCCC1 + O=c1cc(-c2cccc3c2Sc2ccccc2S3)oc(N2CCOCC2)c1 [KU55933] (first compound 0.16 µM, partner dose 1 µM)  119%
4. NCC(=O)Nc1ccc(-n2nc(C(F)(F)F)cc2-c2ccc3c(ccc4ccccc43)c2)cc1 + N#Cc1c(O)c2c(-c3ccc(-c4ccccc4O)cc3)csc2[nH]c1=O [A769662] (first compound 1 µM, partner dose 2 µM)  96.2%
5. Cn1cc(/C=C2\C(=O)Nc3cccnc32)c2ccccc21 + CCCCCCCCCCCC1=C(O)C(=O)C=C(O)C1=O [Embelin] (first compound 0.4 µM, partner dose 1.2 µM)  94.9%
6. O=C(Nc1ccccc1)c1cc([N+](=O)[O-])ccc1Cl + c1cc(-c2cnn3cc(-c4ccc(OCCN5CCCCC5)cc4)cnc23)ccn1 [Dorsomorphin] (first compound 2 µM, partner dose 0.4 µM)  92.7%
7. O=C(Nc1ccccc1)c1cc([N+](=O)[O-])ccc1Cl + CCCCCCCCCCCC1=C(O)C(=O)C=C(O)C1=O [Embelin] (first compound 2 µM, partner dose 1.2 µM)  92.1%
8. CCN(CC)CCCCNc1ncc2cc(-c3cc(OC)cc(OC)c3)c(NC(=O)NC(C)(C)C)nc2n1 + O=S(=O)(c1ccccc1)N(CC(F)(F)F)c1ccc(C(O)(C(F)(F)F)C(F)(F)F)cc1 [T0901317] (first compound 0.1 µM, partner dose 1.4 µM)  90%
9. COc1ccc(-c2ccc3c(N4CCOCC4)nc(N4C[C@@H](C)O[C@@H](C)C4)nc3n2)cc1CO + COc1cc(N2CCC(N3CCN(C)CC3)CC2)ccc1Nc1ncc(Cl)c(Nc2ccccc2S(=O)(=O)C(C)C)n1 [NVP-TAE684] (first compound 0.02 µM, partner dose 0.08 µM)  83.4%
10. NCC(=O)Nc1ccc(-n2nc(C(F)(F)F)cc2-c2ccc3c(ccc4ccccc43)c2)cc1 + Oc1nc(-c2ccc(C(F)(F)F)cc2)nc2c1CSCC2 [XAV939] (first compound 1 µM, partner dose 2 µM)  82.5%
11. COc1ccc(-c2ccc3c(N4CCOCC4)nc(N4C[C@@H](C)O[C@@H](C)C4)nc3n2)cc1CO + COc1ccc(COc2ccc(Cc3cnc(N)nc3N)cc2OC)cc1 [GW2580] (first compound 0.02 µM, partner dose 1 µM)  81.8%
12. COc1ccc2c(c1)CCC1C2CCC2(C)C(NCCCCCCN3C(=O)C=CC3=O)CCC12 (centres undefined) + COc1ccc(-c2ccc3c(N4CCOCC4)nc(N4C[C@@H](C)O[C@@H](C)C4)nc3n2)cc1CO [KU0063794] (first compound 0.4 µM, partner dose 0.02 µM)  81.3%
13. NCC(=O)Nc1ccc(-n2nc(C(F)(F)F)cc2-c2ccc3c(ccc4ccccc43)c2)cc1 + COc1ccc(-c2ccc3c(N4CCOCC4)nc(N4C[C@@H](C)O[C@@H](C)C4)nc3n2)cc1CO [KU0063794] (first compound 1 µM, partner dose 0.02 µM)  81%
14. COC(=O)c1sccc1S(=O)(=O)Nc1ccc(Nc2ccccc2)cc1OC + COc1ccc(COc2ccc(Cc3cnc(N)nc3N)cc2OC)cc1 [GW2580] (first compound 1 µM, partner dose 1 µM)  80%
15. COc1ccc(-c2ccc3c(N4CCOCC4)nc(N4C[C@@H](C)O[C@@H](C)C4)nc3n2)cc1CO + CCCCCCCCCCCC1=C(O)C(=O)C=C(O)C1=O [Embelin] (first compound 0.02 µM, partner dose 1.2 µM)  76.7%
16. COc1cc2c(Oc3ccc4[nH]c(C)cc4c3F)ncnc2cc1OCCCN1CCCC1 [cediranib] + Oc1nc(-c2ccc(C(F)(F)F)cc2)nc2c1CSCC2 [XAV939] (first compound 0.4 µM, partner dose 2 µM)  75.5%
17. CCN(CC)CCCCNc1ncc2cc(-c3cc(OC)cc(OC)c3)c(NC(=O)NC(C)(C)C)nc2n1 + Oc1nc(-c2ccc(C(F)(F)F)cc2)nc2c1CSCC2 [XAV939] (first compound 0.1 µM, partner dose 2 µM)  72.9%
18. CN(C)S(=O)(=O)c1ccc2c(c1)/C(=C/c1cc3c([nH]1)CCCC3)C(=O)N2 + O=C(O)C(=O)Nc1sc2c(c1C(=O)O)CCNC2 [TCS401] (first compound 0.4 µM, partner dose 1.66667 µM)  71.8%
19. NCC(=O)Nc1ccc(-n2nc(C(F)(F)F)cc2-c2ccc3c(ccc4ccccc43)c2)cc1 + O=c1cc(-c2cccc3c2Sc2ccccc2S3)oc(N2CCOCC2)c1 [KU55933] (first compound 1 µM, partner dose 1 µM)  61.7%
20. COc1cc2c(Oc3ccc4[nH]c(C)cc4c3F)ncnc2cc1OCCCN1CCCC1 [cediranib] + Oc1cc(-c2nc(-c3ccccc3)[nH]c2-c2ccncc2)ccc1Cl [L779450] (first compound 0.4 µM, partner dose 0.2 µM)  58.6%
